Experimental data reported in patent US20200199530A1, “METHODS OF DIFFERENTIATING STEM CELL-DERIVED ECTODERMAL LINEAGE PRECURSORS” (MEMORIAL SLOAN-KETTERING CANCER CENTER, priority 2017, published 2020).
Entries after “also recorded” stand apart in the source; their conditions may differ. At least one structure is not confirmed: it was looked up by name or label, or the drawing left a doubt.

Tested on: hPSC-derived pituitary cells
Assay: Stimulation of hormone release in vitro (ELISA)
Type: cell-based, human
Details: day 30 cells; Nafarelin 1 μM; vs solvent control
Method: To stimulate hormone release in vitro, cells were differentiated in 24 well plates as described above. On day 30 of differentiation cells were washed once with PBS and 250 μl of fresh medium containing either the solvent or the stimulant were added to each well. After 12 h the supernatant was removed and centrifuged for 5 min at 2000 g to pellet debris. Supernatant was transferred into fresh reaction tubes, flash frozen and stored at −80° C. until ELISA measurements. Stimulants used were: CRF (Tocris, 1 μM), Stressin I (Tocris, 2 μM), Ghrelin (Tocris, 1 μM), Somatocrinin (Accurate Chemical, 1 μg/ml), Nafarelin (Tocris, 1 μM) and Urocortin (Tocris, 500 nM).
Hormone concentration in the supernatant of cells or in animal serum was analyzed using ELISA measurements. Hormone concentration in the cell culture supernatant was assessed using traditional single hormone ELISA Kits according to the manufactures manual. […] Cytokine concentrations were determined by Luminex Xponent 4.1 and EMD-Millipore Milliplex Analyst v5.1 using 5-p log analysis.

CC(C)C[C@H](NC(=O)[C@@H](Cc1ccc2ccccc2c1)NC(=O)[C@H](Cc1ccc(O)cc1)NC(=O)[C@H](CO)NC(=O)[C@H](Cc1c[nH]c2ccccc12)NC(=O)[C@H](Cc1c[nH]cn1)NC(=O)[C@@H]1CCC(=O)N1)C(=O)N[C@@H](CCCNC(=N)N)C(=O)N1CCC[C@H]1C(=O)NCC(N)=O [Nafarelin]
FSH release: induction of FSH; also recorded: induced
